According to article PMC3930595:
No constants are given. Whether binding was seen depends on the method and setting. In cells and extracts the contact can be indirect. For some assays here: Where a sequence is shown, tags or fusion partners need not be part of it.

B1: MOMP (major outer membrane protein) (protein, UniProt P06597 23-394)
chain: LPVGNPAEPSLMIDGILWEGFGGDPCDPCTTWCDAISMRMGYYGDFVFDRVLQTDVNKEFQMGAKPTTATGNAAAPSTCTARENPAYGRHMQDAEMFTNAAYMALNIWDRFDVFCTLGATSGYLKGNSASFNLVGLFGDNENHATVSDSKLVPNMSLDQSVVELYTDTTFAWSAGARAALWECGCATLGASFQYAQSKPKVEELNVLCNAAEFTINKPKGYVGQEFPLDLKAGTDGVTGTKDASIDYHEWQASLALSYRLNMFTPYIGVKWSRASFDADTIRIAQPKSATTVFDVTTLNPTIAGAGDVKASAEGQLGDTMQIVSLQLNKMKSRKSCGIAVGTTIVDADKYAVTVETRLIDERAAHVNAQFRF

Assays:
[1] = target: T1, GST-tagged Ct288 (C. trachomatis) (UniProt O84290); test: pull-down; untagged Slc1 co-expressed in E. coli with GST-tagged test protein; glutathione-Sepharose beads, 4 h; binding buffer 1% Triton X-100, 20 mM Tris, 150 mM NaCl, 1 mM EDTA, pH 7.4; washes up to 300 mM NaCl; immunoblot with anti-Slc1 and anti-GST
T1 sequence: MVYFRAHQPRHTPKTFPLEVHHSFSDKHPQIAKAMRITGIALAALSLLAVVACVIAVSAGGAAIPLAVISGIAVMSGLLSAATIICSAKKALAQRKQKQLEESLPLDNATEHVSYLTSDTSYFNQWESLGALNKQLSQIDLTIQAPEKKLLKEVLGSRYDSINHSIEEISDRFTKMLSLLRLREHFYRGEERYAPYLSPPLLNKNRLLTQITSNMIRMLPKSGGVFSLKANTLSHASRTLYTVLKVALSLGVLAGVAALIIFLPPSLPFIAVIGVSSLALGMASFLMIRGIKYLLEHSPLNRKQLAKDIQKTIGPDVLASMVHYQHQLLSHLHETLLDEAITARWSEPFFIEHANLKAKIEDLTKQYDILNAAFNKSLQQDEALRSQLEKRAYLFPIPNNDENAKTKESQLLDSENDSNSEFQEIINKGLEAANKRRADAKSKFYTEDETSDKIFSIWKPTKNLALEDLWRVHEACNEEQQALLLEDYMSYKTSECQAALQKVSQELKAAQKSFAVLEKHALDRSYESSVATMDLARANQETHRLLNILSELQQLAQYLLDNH

[2] = target: Slc1 (Ct043), type III secretion chaperone (Chlamydia trachomatis LGV serotype L2 strain 434/Bu (endogenous in EBs)); test: co-IP; EB lysates with anti-Slc1 antisera or pre-immune sera, captured on Protein A/G agarose; bound and unbound fractions immunoblotted

| Molecule | binding [1] | binding [2] |
| --- | --- | --- |
| untagged Slc1, recombinant (C. trachomatis) | no binding | – |
| B1 | – | no binding |
